# Reference: PubChem BioAssay AID720504 (National Center for Advancing Translational Sciences (NCATS), 2013)
# Protein sequences, listed by entry. Tags and fused reporters are not part of them.
# UniProt P53350, whole entry, looked up: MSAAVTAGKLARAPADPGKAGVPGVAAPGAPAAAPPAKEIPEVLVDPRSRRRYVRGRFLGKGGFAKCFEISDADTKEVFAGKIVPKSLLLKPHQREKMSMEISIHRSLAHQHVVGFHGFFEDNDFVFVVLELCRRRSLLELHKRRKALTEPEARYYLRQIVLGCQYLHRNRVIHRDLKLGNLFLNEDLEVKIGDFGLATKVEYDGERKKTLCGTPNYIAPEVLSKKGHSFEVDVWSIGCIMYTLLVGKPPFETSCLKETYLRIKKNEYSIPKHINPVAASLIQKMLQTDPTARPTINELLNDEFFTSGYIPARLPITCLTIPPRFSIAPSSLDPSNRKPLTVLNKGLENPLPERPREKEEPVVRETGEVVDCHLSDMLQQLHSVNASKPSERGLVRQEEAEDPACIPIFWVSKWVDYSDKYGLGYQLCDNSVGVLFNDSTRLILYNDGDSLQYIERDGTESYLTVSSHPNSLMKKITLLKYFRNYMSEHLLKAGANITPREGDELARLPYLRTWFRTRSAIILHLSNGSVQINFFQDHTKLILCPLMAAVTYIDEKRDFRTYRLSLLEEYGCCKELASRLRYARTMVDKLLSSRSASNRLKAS
# Out of some 360,000 compounds screened, about 10,000 (2.8%) were called active. The shares of active, inactive and inconclusive entries below differ from those in the screen. The call rests on the fitted dose curve; in most records, active means well fitted inhibition curve with a large enough effect; inconclusive means small, poorly fitted or top-dose-only effect; inactive means flat fitted curve, though single readings scatter. Potencies beside an inconclusive call are fits to weak or partial responses and may not hold up.
# Target: Serine/threonine-protein kinase PLK1 (Homo sapiens) (UniProt P53350)
# Experiment: qHTS for Inhibitors of PLK1-PDB (polo-like kinase 1 - polo-box domain): Primary Screen; further: nearly all actives have a fitted effect of over 65% in size; on max response, negative = inhibition: series mostly up to about 57 µM
# Details: Plk1 PBD binding of FITC phosphopeptide, fluorescence polarization
# On the % scale 0 is the no-effect control and ±100 the full control effect; potency means the concentration at half of the fitted maximal effect.
SMILES,Potency,"max response, negative = inhibition"
CCCCn1c(-c2csc(C(C)C)c2)n[nH]c1=S,"inconclusive: 29.9 µM [inhibitor, partial curve]",
Cc1ccc(C)c(N2CCN(C(=O)c3ccc(NS(=O)(=O)c4c(C)noc4C)cc3)CC2)c1,"inconclusive: 26.7 µM [inhibitor, single point]",
Cn1cccc1C(=O)/C(C#N)=C/c1ccc(F)cc1,"inconclusive: 26.7 µM [inhibitor, single point]",
CCOc1ccc2nc(N3C(=O)/C(=C/c4ccc(Cl)cc4)NC3=S)sc2c1,"inconclusive: 16.8 µM [inhibitor, partial curve]",
CC(=O)Nc1ccc(S(=O)(=O)Nc2nc3ccccc3nc2Nc2ccc3ccccc3c2)cc1,active: 23.8 µM,
Cc1cc(NC(=O)CCC2COc3ccccc3O2)no1 (stereo not given),"inconclusive: 21.2 µM [inhibitor, partial curve]",
CC(NC(=O)C1CCN(Cc2ccc(Oc3ccccc3)cc2)CC1)c1cccc2ccccc12 (stereo not given),,inactive: 1.4%
O=C1c2ccccc2-c2onc3ccc(N4CCCC4)c1c23,"inconclusive: 29.9 µM [inhibitor, partial curve]",
CC1CCCCC1NC(=O)CSc1nncn1N (stereo not given),active: 21.2 µM,
Cc1ccccc1SCC(=O)NNC(=O)c1ccccc1O,"inconclusive: 26.7 µM [inhibitor, single point]",
O=[N+]([O-])c1ccc2nc(NS(=O)(=O)c3ccc(F)cc3)sc2c1,"inconclusive: 23.8 µM [inhibitor, partial curve]",
CCCCCOc1ccc(Br)cc1CSC(=N)N,,inactive: -7.23%
O=S(=O)(NNc1ncc(C(F)(F)F)cc1Cl)c1ccc(F)cc1F,"inconclusive: 33.6 µM [inhibitor, single point]",
O=C(O)c1ccc(COc2ccc3ccccc3c2/C=C2/NC(=O)N(Cc3ccc(F)cc3)C2=O)cc1,"inconclusive: 37.7 µM [inhibitor, single point]",
CC(C)S(=O)(=O)C1=NSC2=NC(=O)/C(=C\c3ccc(-c4ccccc4)o3)C(=N)N21,active: 29.9 µM,
COc1ccc(CCNC(=O)c2ccc3nc(-c4ccco4)c(-c4ccco4)nc3c2)cc1OC,active: 26.7 µM,
CC(Sc1sc(=S)sc1SC(C)C(=O)O)C(=O)O (stereo not given),"inconclusive: 26.7 µM [inhibitor, partial curve]",
COc1ccc([C@@H]2CC=C(C(=O)O)[C@H](c3ccc(C)cc3)N2S(=O)(=O)c2ccccc2C)cc1,,inactive: -15.5%
O=C1NC(Cc2ccc(O)cc2)c2nc3ccc(F)cc3c(=O)n2-c2cc(Cl)ccc21 (stereo not given),"inconclusive: 21.2 µM [inhibitor, single point]",
CCSc1nc(-c2ccc(OC)cc2)cc(-c2ccc(OC)cc2)c1C#N,"inconclusive: 37.7 µM [inhibitor, partial curve]",
CCOc1ccc(C(=O)NCC(=O)OCc2cc([N+](=O)[O-])cc3c2OCOC3)cc1OCC,"inconclusive: 26.7 µM [inhibitor, partial curve]",
Clc1cccc(NCc2nnc(SCc3ccccc3Cl)o2)c1,"inconclusive: 18.9 µM [inhibitor, partial curve]",
C=CC1C(N2CCOCC2)C(C)(C)S1(=O)=O (stereo not given),active: 9.47 µM,

SMILES,Potency,"max response, negative = inhibition"
CCOC(=O)C1CCN(S(=O)(=O)c2ccc3c(c2)N(C(C)=O)CC(C)S3)CC1 (stereo not given),active: 18.9 µM,
CC(C)(C)c1cc(C(c2cccnc2)N2CCN(CCO)CC2)cc(C(C)(C)C)c1O (stereo not given),active: 1.89 µM,
COc1ccc(/C=C/C(=O)NC(=S)Nc2ccccc2C(=O)NC2CCCCC2)cc1,,inactive: -0.32%
CCCC1=NN(C(=O)Cc2ccc([N+](=O)[O-])cc2)C(O)(C(F)(F)F)C1 (stereo not given),"inconclusive: 18.9 µM [inhibitor, single point]",
Cn1c(CCc2nc3ccccc3[nH]2)nnc1SCC#N,active: 18.9 µM,
CSc1oc(-c2cccs2)nc1S(=O)(=O)c1ccccc1,"inconclusive: 21.2 µM [inhibitor, partial curve]",
Cc1ccc(N2C(=O)c3cccc4c(N5CCN(C)CC5)ccc(c34)C2=O)c2cccnc12,"inconclusive: 16.8 µM [inhibitor, partial curve]",
CCOC(=O)c1ccccc1OC(=O)CS(=O)c1ccccc1[N+](=O)[O-] (stereo not given),active: 23.8 µM,
CCCCCn1c(SCCN2CCOCC2)nc2c1c(=O)[nH]c(=O)n2C,active: 29.9 µM,
CCOC(=O)c1c(/N=C/c2cccc([N+](=O)[O-])c2O)sc(C)c1C,"inconclusive: 26.7 µM [inhibitor, partial curve]",
CCn1c(SCc2ccccc2)nc2c1c(=O)[nH]c(=O)n2C,"inconclusive: 18.9 µM [inhibitor, partial curve]",
C=CCn1c(SCC(=O)Nc2cc(C)on2)nnc1-c1ccccc1F,,inactive: -2.98%
COc1ccc(-n2nnc3c(SCc4ccccc4)ncnc32)cc1,,inactive: -0.783%
Cc1cc(C)c2cc3c(ccn3C3OC[C@H](O)[C@H](O)[C@H]3O)cc2n1 (stereo not given in full),"inconclusive: 18.9 µM [inhibitor, partial curve]",
COc1ccc(C(=O)N/N=C(/C)c2ccc(N3CCCCC3)cc2)cc1,active: 29.9 µM,
COC(=O)c1cc(/C=C/c2ccccc2)on1,"inconclusive: 18.9 µM [inhibitor, partial curve, poor fit]",
COc1cccc(-c2nc(C(N)=O)c3[nH]c(=O)n(-c4cccc(Cl)c4)c3n2)c1OC,"inconclusive: 26.7 µM [inhibitor, single point]",
Cc1cc(C)c2c(CC(=O)NNC(=O)c3ccccc3)coc2c1,,inactive: -4.8%
COCCn1cc(-c2csc(N)n2)c2ccccc21,active: 29.9 µM,
CCOc1cc(N2CCOCC2)c(OCC)cc1NC(=O)c1ccccc1C,"inconclusive: 23.8 µM [inhibitor, single point]",
COc1ccc(N2c3ccccc3CN(Cc3ccccc3)[C@@H](C)[C@H]2Cc2ccc(-c3ccccc3)cc2)cc1,,inactive: 3.32%
COc1cc(/C=N/N2C(C)CCCC2C)cc(OC)c1O (stereo not given),"inconclusive: 29.9 µM [inhibitor, single point]",

# Three compounds already listed, ordered by heavy-atom count, high to low.
SMILES,Potency,"max response, negative = inhibition"
COc1ccc(CCNC(=O)c2ccc3nc(-c4ccco4)c(-c4ccco4)nc3c2)cc1OC,active: 26.7 µM,
COc1cccc(-c2nc(C(N)=O)c3[nH]c(=O)n(-c4cccc(Cl)c4)c3n2)c1OC,"inconclusive: 26.7 µM [inhibitor, single point]",
CCCCn1c(-c2csc(C(C)C)c2)n[nH]c1=S,"inconclusive: 29.9 µM [inhibitor, partial curve]",
